# Source: publication PMC5841321
# These are yes or no findings as the source states them, for the method shown. Binding seen in cells or lysates may run through a third protein. These calls come from enrichment with a bait or labelling near it, and not all partners need be listed.
# T1: E3 ubiquitin-protein ligase Midline-1 (UniProt O15344)
# T1 sequence: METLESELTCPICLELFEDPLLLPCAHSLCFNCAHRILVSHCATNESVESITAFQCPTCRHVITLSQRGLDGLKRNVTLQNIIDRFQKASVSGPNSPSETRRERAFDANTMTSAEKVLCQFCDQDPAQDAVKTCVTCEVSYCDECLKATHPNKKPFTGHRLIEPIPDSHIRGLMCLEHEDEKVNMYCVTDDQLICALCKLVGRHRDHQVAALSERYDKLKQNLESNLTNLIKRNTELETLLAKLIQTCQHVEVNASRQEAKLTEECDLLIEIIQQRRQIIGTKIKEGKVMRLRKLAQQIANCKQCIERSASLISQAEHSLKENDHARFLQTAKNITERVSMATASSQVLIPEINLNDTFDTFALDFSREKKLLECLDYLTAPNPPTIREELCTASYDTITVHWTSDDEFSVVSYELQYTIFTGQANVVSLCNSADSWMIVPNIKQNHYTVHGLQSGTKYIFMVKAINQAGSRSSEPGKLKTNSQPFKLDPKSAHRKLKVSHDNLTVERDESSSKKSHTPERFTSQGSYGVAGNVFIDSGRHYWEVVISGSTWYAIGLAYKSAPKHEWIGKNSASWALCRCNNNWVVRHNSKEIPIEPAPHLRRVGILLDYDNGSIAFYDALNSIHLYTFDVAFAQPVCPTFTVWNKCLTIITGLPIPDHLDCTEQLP
# Biological target: T1, E3 ubiquitin-protein ligase Midline-1
# Assay: affinity purification with mass spectrometry; MID1-FLAG expressed in HEK293T, lysate in TKM buffer (20 mM Tris pH 7.4, 100 mM KCl, 5 mM MgCl2, 0.5% NP40, 1 mM DTT), anti-FLAG M1 agarose overnight at 4 °C, 6 washes; untransfected cells as control; Q-Exactive, MaxQuant, 1% FDR
row,Binder,binding
1,"Apoptotic chromatin condensation inducer in the nucleus (protein, UniProt Q9UKV3 1-1341) MWRRKHPRTSGGTRGVLSGNRGVEYGSGRGHLGTFEGRWRKLPKMPEAVGTDPSTSRKMAELEEVTLDGKPLQALRVTDLKAALEQRGLAKSGQKSALVKRLKGALMLENLQKHSTPHAAFQPNSQIGEEMSQNSFIKQYLEKQQELLRQRLEREAREAAELEEASAESEDEMIHPEGVASLLPPDFQSSLERPELELSRHSPRKSSSISEEKGDSDDEKPRKGERRSSRVRQARAAKLSEGSQPAEEEEDQETPSRNLRVRADRNLKTEEEEEEEEEEEEDDEEEEGDDEGQKSREAPILKEFKEEGEEIPRVKPEEMMDERPKTRSQEQEVLERGGRFTRSQEEARKSHLARQQQEKEMKTTSPLEEEEREIKSSQGLKEKSKSPSPPRLTEDRKKASLVALPEQTASEEETPPPLLTKEASSPPPHPQLHSEEEIEPMEGPAPAVLIQLSPPNTDADTRELLVSQHTVQLVGGLSPLSSPSDTKAESPAEKVPEESVLPLVQKSTLADYSAQKDLEPESDRSAQPLPLKIEELALAKGITEECLKQPSLEQKEGRRASHTLLPSHRLKQSADSSSSRSSSSSSSSSRSRSRSPDSSGSRSHSPLRSKQRDVAQARTHANPRGRPKMGSRSTSESRSRSRSRSRSASSNSRKSLSPGVSRDSSTSYTETKDPSSGQEVATPPVPQLQVCEPKERTSTSSSSVQARRLSQPESAEKHVTQRLQPERGSPKKCEAEEAEPPAATQPQTSETQTSHLPESERIHHTVEEKEEVTMDTSENRPENDVPEPPMPIADQVSNDDRPEGSVEDEEKKESSLPKSFKRKISVVSATKGVPAGNSDTEGGQPGRKRRWGASTATTQKKPSISITTESLKSLIPDIKPLAGQEAVVDLHADDSRISEDETERNGDDGTHDKGLKICRTVTQVVPAEGQENGQREEEEEEKEPEAEPPVPPQVSVEVALPPPAEHEVKKVTLGDTLTRRSISQQKSGVSITIDDPVRTAQVPSPPRGKISNIVHISNLVRPFTLGQLKELLGRTGTLVEEAFWIDKIKSHCFVTYSTVEEAVATRTALHGVKWPQSNPKFLCADYAEQDELDYHRGLLVDRPSETKTEEQGIPRPLHPPPPPPVQPPQHPRAEQREQERAVREQWAEREREMERRERTRSEREWDRDKVREGPRSRSRSRDRRRKERAKSKEKKSEKKEKAQEEPPAKLLDDLFRKTKAAPCIYWLPLTDSQIVQKEAERAERAKEREKRRKEQEEEEQKEREKEAERERNRQLEREKRREHSRERDRERERERERDRGDRDRDRERDRERGRERDRRDTKRHSRSRSRSTPVRDRGGRR",binds
2,"Exportin-T (protein, UniProt O43592 1-962) MDEQALLGLNPNADSDFRQRALAYFEQLKISPDAWQVCAEALAQRTYSDDHVKFFCFQVLEHQVKYKYSELTTVQQQLIRETLISWLQAQMLNPQPEKTFIRNKAAQVFALLFVTEYLTKWPKFFFDILSVVDLNPRGVDLYLRILMAIDSELVDRDVVHTSEEARRNTLIKDTMREQCIPNLVESWYQILQNYQFTNSEVTCQCLEVVGAYVSWIDLSLIANDRFINMLLGHMSIEVLREEACDCLFEVVNKGMDPVDKMKLVESLCQVLQSAGFFSIDQEEDVDFLARFSKLVNGMGQSLIVSWSKLIKNGDIKNAQEALQAIETKVALMLQLLIHEDDDISSNIIGFCYDYLHILKQLTVLSDQQKANVEAIMLAVMKKLTYDEEYNFENEGEDEAMFVEYRKQLKLLLDRLAQVSPELLLASVRRVFSSTLQNWQTTRFMEVEVAIRLLYMLAEALPVSHGAHFSGDVSKASALQDMMRTLVTSGVSSYQHTSVTLEFFETVVRYEKFFTVEPQHIPCVLMAFLDHRGLRHSSAKVRSRTAYLFSRFVKSLNKQMNPFIEDILNRIQDLLELSPPENGHQSLLSSDDQLFIYETAGVLIVNSEYPAERKQALMRNLLTPLMEKFKILLEKLMLAQDEERQASLADCLNHAVGFASRTSKAFSNKQTVKQCGCSEVYLDCLQTFLPALSCPLQKDILRSGVRTFLHRMIICLEEEVLPFIPSASEHMLKDCEAKDLQEFIPLINQITAKFKIQVSPFLQQMFMPLLHAIFEVLLRPAEENDQSAALEKQMLRRSYFAFLQTVTGSGMSEVIANQGAENVERVLVTVIQGAVEYPDPIAQKTCFIILSKLVELWGGKDGPVGFADFVYKHIVPACFLAPLKQTFDLADAQTVLALSECAVTLKTIHLKRGPECVQYLQQEYLPSLQVAPEIIQEFCQALQQPDAKVFKNYLKVFFQRAKP",binds
3,"ATP-dependent RNA helicase DDX50 (protein, UniProt Q9BQ39 1-737) MPGKLLWGDIMELEAPLEESESQKKERQKSDRRKSRHHYDSDEKSETRENGVTDDLDAPKAKKSKMKEKLNGDTEEGFNRLSDEFSKSHKSRRKDLPNGDIDEYEKKSKRVSSLDTSTHKSSDNKLEETLTREQKEGAFSNFPISEETIKLLKGRGVTYLFPIQVKTFGPVYEGKDLIAQARTGTGKTFSFAIPLIERLQRNQETIKKSRSPKVLVLAPTRELANQVAKDFKDITRKLSVACFYGGTSYQSQINHIRNGIDILVGTPGRIKDHLQSGRLDLSKLRHVVLDEVDQMLDLGFAEQVEDIIHESYKTDSEDNPQTLLFSATCPQWVYKVAKKYMKSRYEQVDLVGKMTQKAATTVEHLAIQCHWSQRPAVIGDVLQVYSGSEGRAIIFCETKKNVTEMAMNPHIKQNAQCLHGDIAQSQREITLKGFREGSFKVLVATNVAARGLDIPEVDLVIQSSPPQDVESYIHRSGRTGRAGRTGICICFYQPRERGQLRYVEQKAGITFKRVGVPSTMDLVKSKSMDAIRSLASVSYAAVDFFRPSAQRLIEEKGAVDALAAALAHISGASSFEPRSLITSDKGFVTMTLESLEEIQDVSCAWKELNRKLSSNAVSQITRMCLLKGNMGVCFDVPTTESERLQAEWHDSDWILSVPAKLPEIEEYYDGNTSSNSRQRSGWSSGRSGRSGRSGGRSGGRSGRQSRQGSRSGSRQDGRRRSGNRNRSRSGGHKRSFD",binds

# Continued, values first:
row,binding,Binder
1,binds,"Zinc finger CCCH domain-containing protein 18 (protein, UniProt Q86VM9 1-953) MDVAESPERDPHSPEDEEQPQGLSDDDILRDSGSDQDLDGAGVRASDLEDEESAARGPSQEEEDNHSDEEDRASEPKSQDQDSEVNELSRGPTSSPCEEEGDEGEEDRTSDLRDEASSVTRELDEHELDYDEEVPEEPAPAVQEDEAEKAGAEDDEEKGEGTPREEGKAGVQSVGEKESLEAAKEKKKEDDDGEIDDGEIDDDDLEEGEVKDPSDRKVRPRPTCRFFMKGNCTWGMNCRFIHPGVNDKGNYSLITKADPFPPNGAPPLGPHPLMPANPWGGPVVDEILPPPPPEPPTESAWERGLRHAKEVLKKATIRKEQEPDFEEKRFTVTIGEDEREFDKENEVFRDWNSRIPRDVRDTVLEPYADPYYDYEIERFWRGGQYENFRVQYTETEPYHNYRERERERERENRQRERERERERDRERERRQRERERERERERDKERQRRKEEWERERAKRDEKDRQHRDRDREKEREKEKGKPKPRSPQPPSRQAEPPKKEAATTGPQVKRADEWKDPWRRSKSPKKKLGVSVSPSRARRRRKTSASSASASNSSRSSSRSSSYSGSGSSRSRSRSSSYSSYSSRSSRHSSFSGSRSRSRSFSSSPSPSPTPSPHRPSIRTKGEPAPPPGKAGEKSVKKPAPPPAPPQATKTTAPVPEPTKPGDPREARRKERPARTPPRRRTLSGSGSGSGSSYSGSSSRSRSLSVSSVSSVSSATSSSSSAHSVDSEDMYADLASPVSSASSRSPAPAQTRKEKGKSKKEDGVKEEKRKRDSSTQPPKSAKPPAGGKSSQQPSTPQQAPPGQPQQGTFVAHKEIKLTLLNKAADKGSRKRYEPSDKDRQSPPPAKRPNTSPDRGSRDRKSGGRLGSPKPERQRGQNSKAPAAPADRKRQLSPQSKSSSKVTSVPGKASDPGAASTKSGKASTLSRREELLKQLKAVEDAIARKRAKIPGKA"
2,binds,"Zinc finger protein 622 (protein, UniProt Q969S3 1-477) MATYTCITCRVAFRDADMQRAHYKTDWHRYNLRRKVASMAPVTAEGFQERVRAQRAVAEEESKGSATYCTVCSKKFASFNAYENHLKSRRHVELEKKAVQAVNRKVEMMNEKNLEKGLGVDSVDKDAMNAAIQQAIKAQPSMSPKKAPPAPAKEARNVVAVGTGGRGTHDRDPSEKPPRLQWFEQQAKKLAKQQEEDSEEEEEDLDGDDWEDIDSDEELECEDTEAMDDVVEQDAEEEEAEEGPPLGAIPITDCLFCSHHSSSLMKNVAHMTKDHSFFIPDIEYLSDIKGLIKYLGEKVGVGKICLWCNEKGKSFYSTEAVQAHMNDKSHCKLFTDGDAALEFADFYDFRSSYPDHKEGEDPNKAEELPSEKNLEYDDETMELILPSGARVGHRSLMRYYKQRFGLSRAVAVAKNRKAVGRVLQQYRALGWTGSTGAALMRERDMQYVQRMKSKWMLKTGMKNNATKQMHFRVQVRF"
